No constants are given. Whether binding was seen depends on the method and setting. In cells and extracts the contact can be indirect. Some results given as binding are weak or reduced against the parent protein; the word gives no strength. For some assays here: Tags and fused reporters may be left off the sequences shown.

The chains behind the UniProt entries cited, without tags or fusion partners.
UniProt Q8N895: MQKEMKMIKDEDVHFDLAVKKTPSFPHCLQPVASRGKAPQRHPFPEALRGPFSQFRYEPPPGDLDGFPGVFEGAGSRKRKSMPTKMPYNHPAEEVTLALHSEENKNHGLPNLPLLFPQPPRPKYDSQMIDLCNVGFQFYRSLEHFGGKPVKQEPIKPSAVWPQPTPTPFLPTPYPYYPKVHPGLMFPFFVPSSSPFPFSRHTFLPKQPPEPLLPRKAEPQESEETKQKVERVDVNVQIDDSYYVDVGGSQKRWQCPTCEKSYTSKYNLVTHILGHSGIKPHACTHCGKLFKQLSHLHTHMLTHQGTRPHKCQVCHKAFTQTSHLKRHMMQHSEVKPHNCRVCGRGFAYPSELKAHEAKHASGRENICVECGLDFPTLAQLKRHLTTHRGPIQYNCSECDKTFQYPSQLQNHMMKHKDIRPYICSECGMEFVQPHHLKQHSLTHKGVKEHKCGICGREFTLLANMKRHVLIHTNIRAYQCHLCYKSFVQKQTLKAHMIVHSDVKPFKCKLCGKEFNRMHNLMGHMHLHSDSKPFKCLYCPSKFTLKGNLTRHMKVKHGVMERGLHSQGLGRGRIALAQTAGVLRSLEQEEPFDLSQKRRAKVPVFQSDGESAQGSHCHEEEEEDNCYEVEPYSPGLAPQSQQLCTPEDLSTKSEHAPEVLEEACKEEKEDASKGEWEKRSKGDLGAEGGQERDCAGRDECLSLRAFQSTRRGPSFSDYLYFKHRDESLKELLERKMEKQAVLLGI

This note sets out measurements from doi:10.1101/2024.01.11.574638.

Assay [1] deals with T1, murine DC-SCRIPT (ZFP366), Myc-DDK tagged (mouse) (UniProt Q6NS86).
T1 sequence: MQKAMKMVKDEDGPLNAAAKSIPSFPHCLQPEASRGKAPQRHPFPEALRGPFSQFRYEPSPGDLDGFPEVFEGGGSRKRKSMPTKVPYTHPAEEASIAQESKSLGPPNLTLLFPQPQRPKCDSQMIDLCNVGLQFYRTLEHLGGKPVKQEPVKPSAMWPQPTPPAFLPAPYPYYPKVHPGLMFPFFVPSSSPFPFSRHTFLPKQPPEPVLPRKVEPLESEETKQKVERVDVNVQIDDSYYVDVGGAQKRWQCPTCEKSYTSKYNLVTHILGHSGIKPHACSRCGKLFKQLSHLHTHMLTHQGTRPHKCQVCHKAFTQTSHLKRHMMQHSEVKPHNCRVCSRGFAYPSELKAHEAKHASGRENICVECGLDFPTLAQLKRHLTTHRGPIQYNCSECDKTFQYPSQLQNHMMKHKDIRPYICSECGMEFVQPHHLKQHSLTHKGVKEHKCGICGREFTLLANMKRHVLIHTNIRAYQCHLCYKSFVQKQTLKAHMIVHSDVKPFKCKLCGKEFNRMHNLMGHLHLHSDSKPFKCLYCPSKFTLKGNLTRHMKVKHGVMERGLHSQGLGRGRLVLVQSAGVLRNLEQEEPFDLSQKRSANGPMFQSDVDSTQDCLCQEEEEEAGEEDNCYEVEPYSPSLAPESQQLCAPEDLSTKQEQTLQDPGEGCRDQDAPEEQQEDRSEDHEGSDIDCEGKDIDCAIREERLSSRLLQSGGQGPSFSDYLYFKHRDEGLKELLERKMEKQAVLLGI
Description: co-IP.

The target of the next assay is human DC-SCRIPT (human) (UniProt Q8N895). The assay is described as follows: co-IP.

B1: murine IRF7 (isoform a) (protein, UniProt P70434 1-457)
chain: MAEVRGVQRVLFGDWLLGEVSSGQYEGLQWLNEARTVFRVPWKHFGRRDLDEEDAQIFKAWAVARGRWPPSGVNLPPPEAEAAERRERRGWKTNFRCALHSTGRFILRQDNSGDPVDPHKVYELSRELGSTVGPATENREEVSLSNALPTQGVSPGSFLARENAGLQTPSPLLSSDAGDLLLQVLQYSHILESESGADPVPPQAPGQEQDRVYEEPYAAWQVEAVPSPRPQQPALTERSLGFLDVTIMYKGRTVLQAVVGHPRCVFLYSPMAPAVRTSEPQPVIFPSPAELPDQKQLHYTETLLQHVSPGLQLELRGPSLWALRMGKCKVYWEVGSPMGTTGPSTPPQLLERNRHTPIFDFSTFFRELEEFRARRRQGSPHYTIYLGFGQDLSAGRPKEKTLILVKLEPWVCKAYLEGVQREGVSSLDSSSLGLCLSSTNSLYEDIEHFLMDLGQWP
Consider B1, for which the binding entry in assay [1] is recorded as “binds”.

B2: human IRF7 (isoform a) (protein, UniProt Q92985 1-503)
chain: MALAPERAAPRVLFGEWLLGEISSGCYEGLQWLDEARTCFRVPWKHFARKDLSEADARIFKAWAVARGRWPPSSRGGGPPPEAETAERAGWKTNFRCALRSTRRFVMLRDNSGDPADPHKVYALSRELCWREGPGTDQTEAEAPAAVPPPQGGPPGPFLAHTHAGLQAPGPLPAPAGDKGDLLLQAVQQSCLADHLLTASWGADPVPTKAPGEGQEGLPLTGACAGGPGLPAGELYGWAVETTPSPGPQPAALTTGEAAAPESPHQAEPYLSPSPSACTAVQEPSPGALDVTIMYKGRTVLQKVVGHPSCTFLYGPPDPAVRATDPQQVAFPSPAELPDQKQLRYTEELLRHVAPGLHLELRGPQLWARRMGKCKVYWEVGGPPGSASPSTPACLLPRNCDTPIFDFRVFFQELVEFRARQRRGSPRYTIYLGFGQDLSAGRPKEKSLVLVKLEPWLCRVHLEGTQREGVSSLDSSSLSLCLSSANSLYDDIECFLMELEQPA
For the molecule B2, the binding entry with human DC-SCRIPT (human) is listed as “binds”.
